Reference: PubChem BioAssay AID330 (DTP/NCI, 2004)
The list is a part of this screen's results and no random one: it is rich in T/C values a quarter to a half above the control, in often repeated tests (any T/C) and in doses without a T/C. Other doses and runs of a compound stand elsewhere. T/C is the treated group as % of the vehicle group. Some doses have a count of surviving animals in place of a T/C: the source files T/C as zero there, which appears to mark a toxic dose or a test without result, not a measured value. Some doses without a T/C left all or most animals alive at the check, yet need not have been tolerated: survival well below the control is almost never listed, so the zero probably covers shortened survival too. Survivors were counted at the toxicity check, usually on the fifth day, unless a day is given; later deaths do not show. Schedule codes are those of the source, read here as Q, the interval in days (D) or hours (H), X, the number of doses. Some entries were tested several times; their values stand side by side, smallest first. For survival time, this PubChem deposit counts one and a half times the control or more as active, and values a quarter to a half above the control carry no call in these data; other NCI protocols may use other cut-offs. Some T/C values are followed by the survivors on the day toxicity was checked, most often the fifth; without a count, all were alive then. Counts like (3×) count equal records among those shown.

Test system: P388 leukemia ip, CD2F1 mice, survival T/C
Experiment: NCI In Vivo Anticancer Drug Screen. Data for tumor model P388 Leukemia (intraperitoneal) in CD2F1 (CDF1) mice
Conditions: T/C endpoint: median survival time, higher T/C = longer survival
[1] = dose: 200.0 mg/kg/injection, schedule: Q01DX009 (ip), vehicle: saline with Tween-80
[2] = dose: 50.0 mg/kg/injection, schedule: Q01DX009 (ip), vehicle: saline with Tween-80
[3] = dose: 240.0 mg/kg/injection, schedule: Q01DX005 (ip), vehicle: saline
[4] = dose: 6.0 mg/kg/injection, schedule: Q01DX009 (ip), vehicle: Klucel (hydroxypropylcellulose) (HPC)

NC(=O)CCCSC1=CC(=O)c2ccccc2C1=O was tested. Which survivor count (dose: 25.0 mg/kg/injection, schedule: Q04DX002 (ip), vehicle: saline with Tween-80) did it give?
Its survivor count is 4 of 6.

And the survivor count (dose: 50.0 mg/kg/injection, schedule: Q04DX002 (ip), vehicle: saline with Tween-80)?
Its survivor count is 0 of 6.

And the survivor count (dose: 100.0 mg/kg/injection, schedule: Q04DX002 (ip), vehicle: saline with Tween-80)?
Its survivor count is 0 of 6.

And the survivor count (dose: 200.0 mg/kg/injection, schedule: Q04DX002 (ip), vehicle: saline with Tween-80)?
The survivor count was 0 of 6.

And the survivor count (dose: 400.0 mg/kg/injection, schedule: Q04DX002 (ip), vehicle: saline with Tween-80)?
Its survivor count is 0 of 6.

With c1ccc(N=N/C(=N\Nc2ccccc2)SCCS/C(N=Nc2ccccc2)=N/Nc2ccccc2)cc1 as the compound, how does the survivor count [1] read?
The survivor count was 3 of 6.

How did the T/C [2] turn out when CNC(=S)ON1CCCCC1 was run?
The T/C was 125 % of control.

What about the survivor count (dose: 400.0 mg/kg/injection, schedule: Q01DX009 (ip), vehicle: saline with Tween-80) of the same compound?
Its survivor count is 0 of 6.

For OCC1(OC2OC(CF)C(O)C(O)C2O)OC(CF)C(O)C1O (stereo not drawn), which survivor count [3] is on record?
The survivor count was 2 of 6.

Which results are given for COc1cccc2c1C(=O)c1c(O)c3c(c(O)c1C2=O)C[C@@](O)(C(C)=O)C[C@@H]3OC1CC(NC(C)C)C(O)C(C)O1 (stereo partly drawn)?
T/C (dose: 1.56 mg/kg/injection, schedule: Q01DX009 (ip), vehicle: water): 131 and 137 % of control; T/C (dose: 3.13 mg/kg/injection, schedule: Q01DX009 (ip), vehicle: water): 139 and 144 % of control; T/C (dose: 18.8 mg/kg/injection, schedule: Q04DX003 (ip), vehicle: water): 125 % of control; survivor count (dose: 25.0 mg/kg/injection, schedule: Q01DX009 (ip), vehicle: water): 6 of 6; T/C (dose: 37.5 mg/kg/injection, schedule: Q04DX003 (ip), vehicle: water): 127 and 141 % of control; survivor count (dose: 50.0 mg/kg/injection, schedule: Q01DX009 (ip), vehicle: water): 4 of 6; T/C (dose: 75.0 mg/kg/injection, schedule: Q04DX003 (ip), vehicle: water): 134 and 148 % of control; survivor count (dose: 300.0 mg/kg/injection, schedule: Q04DX003 (ip), vehicle: water): 1 of 6

How did the survivor count (dose: 120.0 mg/kg/injection, schedule: Q01DX005 (ip), vehicle: saline) turn out when COc1ccc(C[n+]2ccc3ccccc3c2)cc1 was run?
Its survivor count is 0 of 6.

And the survivor count [3]?
The survivor count was 0 of 6.

With COc1cc2cc(c1Cl)N1CCC(C)(O)C(=O)NC(C)C(=O)OC(CC1=O)C1(C)OC1C(C)C1CC(O)(NC(=O)O1)C(OC)/C=C\C=C(\C)C2OC (stereo not drawn) as the compound, how does the T/C (dose: 0.12 mg/kg/injection, schedule: Q01DX009 (ip), vehicle: distilled water + alcohol) read?
Its T/C is 142 % of control.

What about the survivor count (dose: 0.25 mg/kg/injection, schedule: Q01DX009 (ip), vehicle: distilled water + alcohol) of the same compound?
Its survivor count is 4 of 4.

And the survivor count (dose: 0.5 mg/kg/injection, schedule: Q01DX009 (ip), vehicle: distilled water + alcohol)?
The survivor count was 0 of 4.

What about the survivor count (dose: 1.0 mg/kg/injection, schedule: Q01DX009 (ip), vehicle: distilled water + alcohol) of the same compound?
The survivor count was 0 of 4.

What about the T/C (dose: 8.0 micrograms/kg/injection, schedule: Q01DX009 (ip), vehicle: distilled water + alcohol) of the same compound?
The T/C was 144 % of control.

What does the source list for CCc1c2cc3c(cc2cc2c4cc5c(cc4cc[n+]12)OCO5)OCO3 (tested in a mixture with another compound)?
T/C (dose: 1.5 mg/kg/injection, schedule: Q01DX009 (ip), vehicle: Klucel (hydroxypropylcellulose) (HPC)): 138 and 140 % of control; T/C (dose: 2.0 mg/kg/injection, schedule: Q01DX009 (ip), vehicle: Klucel (hydroxypropylcellulose) (HPC)): 126, 128, 140 % of control; T/C (dose: 3.0 mg/kg/injection, schedule: Q01DX009 (ip), vehicle: Klucel (hydroxypropylcellulose) (HPC)): 135, 138, 140 [5 of 6 alive], 148 % of control; T/C (dose: 4.0 mg/kg/injection, schedule: Q01DX009 (ip), vehicle: Klucel (hydroxypropylcellulose) (HPC)): 135 and 148 % of control (2×); T/C (dose: 5.0 mg/kg/injection, schedule: Q01DX009 (ip), vehicle: Klucel (hydroxypropylcellulose) (HPC)): 148 % of control; T/C [4]: 148 % of control; survivor count [4]: 3 of 6 and 6 of 6; survivor count (dose: 10.0 mg/kg/injection, schedule: Q01DX009 (ip), vehicle: Klucel (hydroxypropylcellulose) (HPC)): 0 of 6; survivor count (dose: 12.0 mg/kg/injection, schedule: Q01DX009 (ip), vehicle: Klucel (hydroxypropylcellulose) (HPC)): 0 of 6; survivor count (dose: 15.0 mg/kg/injection, schedule: Q01DX009 (ip), vehicle: Klucel (hydroxypropylcellulose) (HPC)): 0 of 6; survivor count (dose: 20.0 mg/kg/injection, schedule: Q01DX009 (ip), vehicle: Klucel (hydroxypropylcellulose) (HPC)): 0 of 6; survivor count (dose: 30.0 mg/kg/injection, schedule: Q01DX009 (ip), vehicle: Klucel (hydroxypropylcellulose) (HPC)): 0 of 6; survivor count (dose: 40.0 mg/kg/injection, schedule: Q01DX009 (ip), vehicle: Klucel (hydroxypropylcellulose) (HPC)): 0 of 6

Brc1ccccc1C(Nc1nncs1)Nc1nncs1 was tested. Which T/C (dose: 120.0 mg/kg/injection, schedule: Q01DX005 (ip), vehicle: saline with Tween-80, evaluated on day 20) did it give?
The T/C was 136 % of control.

And the T/C (dose: 120.0 mg/kg/injection, schedule: Q01DX005 (ip), vehicle: saline with Tween-80, evaluated on day 30)?
Its T/C is 132 % of control.

For CCN(CC)CCNc1ccc(COC(=O)NC)c2sc3ccccc3c(=O)c12, which survivor count (dose: 12.5 mg/kg/injection, schedule: Q01DX009 (ip), vehicle: saline with Tween-80) is on record?
The survivor count was 1 of 6.

And the survivor count [2]?
Its survivor count is 0 of 6.

And the survivor count (dose: 100.0 mg/kg/injection, schedule: Q01DX009 (ip), vehicle: saline with Tween-80)?
Its survivor count is 0 of 6.

And the survivor count [1]?
Its survivor count is 0 of 6.

Which results are given for Cc1ccc(C2OC(=O)C(=O)C2=O)cc1 (stereo not drawn)?
survivor count (dose: 15.0 mg/kg/injection, schedule: Q01DX005 (ip), vehicle: Klucel + Tween-80): 4 of 6; survivor count (dose: 30.0 mg/kg/injection, schedule: Q01DX005 (ip), vehicle: Klucel + Tween-80): 0 of 6; survivor count (dose: 60.0 mg/kg/injection, schedule: Q01DX005 (ip), vehicle: Klucel + Tween-80): 0 of 6; survivor count (dose: 120.0 mg/kg/injection, schedule: Q01DX005 (ip), vehicle: Klucel + Tween-80): 0 of 6; survivor count (dose: 240.0 mg/kg/injection, schedule: Q01DX005 (ip), vehicle: Klucel + Tween-80): 0 of 6

Which survivor count (dose: 200.0 mg/kg/injection, schedule: Q01DX009 (ip), vehicle: saline) does the source give for CCNCC(O)c1cccc(C(F)(F)F)c1 (stereo not drawn) here?
The survivor count was 0 of 6.

How did the survivor count (dose: 200.0 mg/kg/injection, schedule: Q04DX003 (ip), vehicle: other) turn out when CO[C@H]1/C=C/O[C@@]2(C)Oc3c(C)c(O)c4c(O)c(c(/C=N/N5CCN(C)CC5)c(O)c4c3C2=O)NC(=O)/C(C)=C\C=C\[C@H](C)[C@H](O)[C@@H](C)[C@@H](O)[C@@H](C)[C@H](OC(C)=O)[C@@H]1C was run?
The survivor count was 6 of 6.

And the survivor count (dose: 400.0 mg/kg/injection, schedule: Q01DX009 (ip), vehicle: other)?
The survivor count was 2 of 6.

And the survivor count (dose: 400.0 mg/kg/injection, schedule: Q04DX003 (ip), vehicle: distilled water + Tween-80)?
The survivor count was 3 of 6.

And the survivor count (dose: 400.0 mg/kg/injection, schedule: Q04DX003 (ip), vehicle: other)?
The survivor count was 0 of 3 and 4 of 6.

For COC(=O)Nc1nc2ccc(C3(c4ccc(F)cc4)OCCO3)cc2[nH]1, which T/C (dose: 40.0 mg/kg/injection, schedule: Q04DX003 (ip), vehicle: saline) is on record?
The T/C was 137 % of control.

What about the survivor count (dose: 90.0 mg/kg/injection, schedule: Q04DX003 (ip), vehicle: saline) of the same compound?
The survivor count was 9 of 9.

What about the T/C (dose: 100.0 mg/kg/injection, schedule: Q01DX009 (oral), vehicle: saline) of the same compound?
The T/C was 128 % of control.

And the survivor count (dose: 100.0 mg/kg/injection, schedule: Q04DX003 (ip), vehicle: saline)?
The survivor count was 9 of 10.

NC1(c2ccccc2)CCCCC1 was tested. Which survivor count (dose: 100.0 mg/kg/injection, schedule: Q01DX009 (ip), vehicle: saline) did it give?
The survivor count was 0 of 6.

With CC(=O)OC(C)(C)/C=C/C(=O)[C@](C)(O)[C@H]1[C@H](O)C[C@@]2(C)[C@@H]3CC=C4[C@@H](C[C@H](O)[C@H](O)C4(C)C)[C@]3(C)C(=O)C[C@]12C as the compound, how does the survivor count (dose: 40.0 mg/kg/injection, schedule: Q01DX009 (ip), vehicle: saline with Tween-80) read?
Its survivor count is 4 of 5.

And the survivor count (dose: 80.0 mg/kg/injection, schedule: Q01DX009 (ip), vehicle: saline)?
Its survivor count is 1 of 6.

And the survivor count (dose: 120.0 mg/kg/injection, schedule: Q01DX009 (ip), vehicle: saline)?
Its survivor count is 0 of 6.

And the survivor count (dose: 180.0 mg/kg/injection, schedule: Q01DX009 (ip), vehicle: saline)?
Its survivor count is 0 of 6.

And the survivor count (dose: 266.0 mg/kg/injection, schedule: Q01DX009 (ip), vehicle: saline)?
Its survivor count is 0 of 6.
